At least one structure is not confirmed: it was looked up by name or label, or the drawing left a doubt.
Assays:
[1] = test system: unstimulated CD4+ T cells; assay: Lentiviral vector transduction of unstimulated CD4+ T cells (GFP expression); format: cell-based; conditions: freshly isolated unstimulated human CD4+ T cells; rapamycin 12 hours; MOI 20; GFP read eight days later; effect rose with rapamycin concentration; FIG. 2 left panel
[2] = test system: non-cytokine stimulated human CD34+ cells; assay: Lentiviral vector transduction of non-cytokine stimulated CD34+ cells (GFP marking, MFI); format: cell-based; conditions: single agent, total treatment time 12 hours, FIG. 1 left panel
activated CD4+ T cells = assay: Lentiviral vector transduction of activated CD4+ T cells (GFP expression); format: cell-based, human; conditions: CD4+ T cells stimulated with CD3/CD28 beads and IL-2 for 1 day; rapamycin 12 hours; MOI 20; GFP read six days later; FIG. 2 right panel

CO[C@H]1C[C@@H]2CC[C@@H](C)[C@@](O)(O2)C(=O)C(=O)N2CCCC[C@H]2C(=O)O[C@H]([C@H](C)C[C@@H]2CC[C@@H](O)[C@H](OC)C2)CC(=O)[C@H](C)/C=C(\C)[C@@H](O)[C@@H](OC)C(=O)[C@H](C)C[C@H](C)/C=C/C=C/C=C/1C [rapamycin]
enhancement of lentiviral vector transduction (GFP expression) [1]: enhanced lentiviral vector transduction of unstimulated CD4+ T cells | lentiviral vector transduction versus no treatment (percentage of cells marked with GFP) [2]: increases transduction slightly over no treatment | enhancement of lentiviral vector transduction (GFP expression) (activated CD4+ T cells): but not activated CD4+ T cells

Source: patent publication US20160201085A1, “Enhancing Efficiency of Retroviral Transduction of Host Cells” (priority 2013, published 2016)
